Measurements published in PubChem BioAssay AID540256 (National Center for Advancing Translational Sciences (NCATS), 2011).
Hit rate of the full screen: of about 300,000 compounds, about 3,700 (1.2%) were called active. The inconclusive results got no clear call from the source; some entries with a clear call stand among them for comparison. Calls come from the whole dose curve; tested in HEK293 cells. A potency beside an inconclusive call is a rough fit, not a confirmed value.

Test: qHTS for Inhibitors of binding or entry into cells for Lassa Virus; note: nearly all actives have a fitted effect of over 50% in size
Details: Lassa virus pseudotype entry inhibition, cell reporter; activity change, negative = inhibition: at 37.9 µM (top of the series) unless noted
% is set by controls: 0 for no effect and ±100 for the full control effect; potency is the fitted concentration of half-maximal effect.

For COc1ccc(OCCC(=O)Nc2cc(C)on2)cc1, which “activity change, negative = inhibition” value is on record?
Its value is inactive: -8.88%.

For COc1cccc(CN2CCN(C(=O)c3ccc(-c4ccccc4)cc3)CC2)c1, which Potency is on record?
The Potency was inconclusive: 0.631 µM [inhibitor, full curve, poor fit].

With Fc1ccc(-c2noc3ncnc(N4CCCCC4)c23)cc1 as the compound, how does the Potency read?
Its Potency is inconclusive: 35.5 µM [activator, single point].

With Cc1ccc(C(=O)c2cn(-c3ccc(F)c(Cl)c3)nn2)cc1 as the compound, how does the Potency read?
Its Potency is inconclusive: 4.11 µM [activator, single point].

With CCOC(=O)C1(Cc2cccc(OC)c2)CCCN(Cc2nccn2CC)C1 (stereo unspecified) as the compound, how does the Potency read?
Its Potency is inconclusive: 35.5 µM [inhibitor, single point].

For COc1ccc(-c2nc(SCC(=O)Nc3cccc(C(C)=O)c3)n[nH]2)cc1, which “activity change, negative = inhibition” value is on record?
The value was inactive: -14.1% [at 46.1 µM].

Which “activity change, negative = inhibition” value does the source give for Cc1cccc(NC(=O)CSc2ccc(-c3ccco3)nn2)c1 here?
Its value is inactive: 0.377%.

Which Potency does the source give for COc1ccc(S(=O)(=O)N2CCN(C(=O)N3CCOCC3)C2C)cc1 (stereo unspecified) here?
Its Potency is inconclusive: 5.62 µM [inhibitor, single point].

Which Potency does the source give for COC(=O)[C@@H]1Cc2c([nH]c3ccccc23)C(C)(C)N1C(=O)CCl here?
The Potency was active: 7.94 µM.

For Cc1nnc(NC(=O)c2ccc3c(c2)C(=O)N(CC2CCCO2)C3=O)s1 (stereo unspecified), which Potency is on record?
The Potency was inconclusive: 32.6 µM [activator, partial curve, poor fit].

Which Potency does the source give for O=C(COc1ccc2ccccc2c1)NC1CC1 here?
The Potency was inconclusive: 2.82 µM [activator, single point].

For CC(C)(C)OC(=O)N1CCC(c2c(C(=O)N3CCOCC3)cnn2-c2ccccc2Cl)CC1, which Potency is on record?
Its Potency is inconclusive: 1.78 µM [inhibitor, full curve].

Which Potency does the source give for CCN(CC)S(=O)(=O)c1ccc2oc(C(=O)NC3CCCc4ccccc43)c(C)c2c1 (stereo unspecified) here?
The Potency was inconclusive: 11.6 µM [inhibitor, partial curve, poor fit].

For CCn1ncc(CNC(=O)C2(C)CC2(Br)Br)c1C (stereo unspecified), which Potency is on record?
The Potency was inconclusive: 0.112 µM [inhibitor, partial curve, poor fit].

For COc1ccccc1CNC(=O)CCCn1c(=O)c2cccn2c2ccccc21, which “activity change, negative = inhibition” value is on record?
Its value is inactive: 2.48% [at 46.1 µM].

With CCOC(=O)c1cc(-c2ccccc2)sc1NC(=O)CC(C)C as the compound, how does the “activity change, negative = inhibition” value read?
Its value is inactive: -21.7%.

With Cc1cc2c(cc1C)-n1c(-c3ccccc3)c3c(=O)n(C)c(=O)n(C)c3c1C(c1ccco1)N2 (stereo unspecified) as the compound, how does the Potency read?
The Potency was inconclusive: 11.2 µM [inhibitor, partial curve, poor fit].

Which “activity change, negative = inhibition” value does the source give for O=C(Nc1cccc([N+](=O)[O-])c1)c1ccn[nH]1 here?
Its value is inactive: -0.112%.

Which “activity change, negative = inhibition” value does the source give for O=C(COc1cccc2cccnc12)NCC(F)(F)F here?
Its value is inactive: -2.33%.

Which “activity change, negative = inhibition” value does the source give for CC(=O)NNC(=O)CCC(=O)Nc1ccccc1 here?
The value was inactive: -16.9% [at 14.3 µM].

For CCc1noc(C)c1C(=O)Nc1nc(-c2cc(C)ccc2C)c(C)s1, which Potency is on record?
Its Potency is inconclusive: 29.1 µM [inhibitor, single point].

With CCOC(=O)C(c1ccc(OC)c(OC)c1)C1c2ccccc2C=C(C)N1C(=O)OC (stereo unspecified) as the compound, how does the Potency read?
The Potency was inconclusive: 1.19 µM [inhibitor, single point].

Which “activity change, negative = inhibition” value does the source give for CCOC(=O)c1c(C)[nH]c(C)c1S(=O)(=O)N1CCN(c2ccccc2OC)CC1 here?
Its value is inactive: -3.18% [at 46.1 µM].

Which “activity change, negative = inhibition” value does the source give for COc1ccc(N/C=C/C(=O)c2ccc(Cl)cc2)cc1 here?
The value was inactive: -18.6%.

With COc1ccc(Cl)cc1NC(=O)CSc1nc2ccccc2nc1N1CCCCC1 as the compound, how does the “activity change, negative = inhibition” value read?
The value was inactive: 0.351% [at 46.1 µM].

For CC(NC(=O)c1ccc2ccccc2n1)c1ccc(Br)cc1 (stereo unspecified), which Potency is on record?
Its Potency is active: 5.62 µM.

For CC(NC(=O)COC(=O)c1cc(NS(=O)(=O)c2ccc(Cl)c([N+](=O)[O-])c2)ccc1O)C1CC2CCC1C2 (stereo unspecified), which Potency is on record?
Its Potency is inconclusive: 14.1 µM [inhibitor, single point].

With COC(=O)c1c(-c2ccc(F)cc2)csc1NC(=O)c1ccco1 as the compound, how does the Potency read?
Its Potency is inconclusive: 1.78 µM [activator, partial curve].

Which “activity change, negative = inhibition” value does the source give for Cc1nn(C)c2c1c(C(F)(F)F)cc(=O)n2C(C)C(=O)N1CCN(c2ccccc2)CC1 (stereo unspecified) here?
The value was inactive: 6.42% [at 46.1 µM].

Which Potency does the source give for COC(=O)c1ccc(COc2ccc(/C=N/N3CCN(C)CC3)cc2)cc1 here?
Its Potency is inconclusive: 3.98 µM [activator, single point].

Which “activity change, negative = inhibition” value does the source give for CCC(C)(C)NC(=O)C(c1cccc(OC)c1OC)N(C(=O)CCC(=O)Nc1cc(C)on1)C(C)C (stereo unspecified) here?
The value was inactive: 3.94%.

For Cc1cc(S(=O)(=O)c2cc3ccc(O)c(C)c3oc2=O)ccc1F, which Potency is on record?
Its Potency is inconclusive: 35.5 µM [inhibitor, single point].

For O=c1c2ccccc2[nH]c(=S)n1Cc1cccs1, which “activity change, negative = inhibition” value is on record?
Its value is inactive: 1.39%.

Which Potency does the source give for O=C(Cn1nnc(-c2ccccc2)n1)OCc1ccccc1 here?
The Potency was inconclusive: 3.98 µM [activator, single point].

Which Potency does the source give for CN(C(=O)CN1C(=O)NC(C)(CCc2ccccc2)C1=O)c1ccccc1 (stereo unspecified) here?
The Potency was inconclusive: 1.12 µM [inhibitor, partial curve, poor fit].

Which Potency does the source give for O=C(C#Cc1ccccc1)c1ccco1 here?
Its Potency is active: 11.2 µM.

For Cc1ccc(OCc2cc(C(=O)N3CCc4[nH]cnc4C3c3ccccn3)no2)cc1C (stereo unspecified), which “activity change, negative = inhibition” value is on record?
The value was inactive: 0.0279% [at 46.1 µM].

Which “activity change, negative = inhibition” value does the source give for COc1ccc(CN(C(=O)Cn2nnc3ccccc32)C(C(=O)NC(C)(C)C)c2ccco2)cc1 (stereo unspecified) here?
The value was inactive: 14.1%.

With Cc1ccc(S(=O)(=O)N2CCN(C(=O)CCc3c[nH]c4ccccc34)CC2)c(C)c1 as the compound, how does the Potency read?
Its Potency is inconclusive: 8.91 µM [inhibitor, partial curve].

With Cc1noc(C)c1COc1cccc(C(=O)OC(C)C#N)c1 (stereo unspecified) as the compound, how does the “activity change, negative = inhibition” value read?
The value was inactive: -13.7%.

With Oc1nc(Nc2cccc(Cl)c2)sc1/C=C1\C=Nc2ccccc21 as the compound, how does the Potency read?
Its Potency is inconclusive: 10 µM [inhibitor, partial curve].

With COc1ccc(C(CCNC(C)c2ccccc2)C(C)C)cc1 (stereo unspecified) as the compound, how does the Potency read?
The Potency was inconclusive: 35.5 µM [inhibitor, single point].

Which “activity change, negative = inhibition” value does the source give for CCOC(=O)c1cnc(-c2ccc(C(F)(F)F)cn2)[nH]c1=O here?
The value was inactive: -23.7%.

With Cc1c(C(=O)Nc2ccccc2)cc(-c2ccccc2)n1CCCN1CCOCC1 as the compound, how does the Potency read?
The Potency was inconclusive: 3.98 µM [inhibitor, single point].

For CCCCOC(=O)CCN1C(=O)/C(=C2\SC(=S)N(CCC(=O)OCCCC)C2=O)SC1=S, which Potency is on record?
The Potency was inconclusive: 35.5 µM [inhibitor, single point].

With COCCn1c(=NC(=O)c2ccco2)sc2cc(C(=O)OC)ccc21 as the compound, how does the Potency read?
Its Potency is inconclusive: 2.24 µM [inhibitor, partial curve, poor fit].

For O=C1CCC/C1=C/Nc1ccc2c(c1)OCO2, which “activity change, negative = inhibition” value is on record?
Its value is inactive: 8.36%.

Which Potency does the source give for O=C(c1ccc(Cl)cc1)n1nc(-c2ccco2)nc1NCc1cccs1 here?
Its Potency is inconclusive: 35.5 µM [activator, partial curve, poor fit].

With O=C(Nc1cnc2sc3c(n2c1=O)CCCC3)c1ccc(F)cc1 as the compound, how does the Potency read?
Its Potency is inconclusive: 10 µM [activator, partial curve].

For CCN(c1ccccc1)S(=O)(=O)c1ccc(NCC2COc3ccccc3O2)nc1 (stereo unspecified), which Potency is on record?
Its Potency is active: 16.4 µM.

Which “activity change, negative = inhibition” value does the source give for COc1ccc(CNC(=O)Nc2cccc(C)c2)cc1 here?
Its value is inactive: -13.9%.

For CN1CCN(c2ccc(C(=O)c3ccccc3)cc2[N+](=O)[O-])CC1, which Potency is on record?
Its Potency is inconclusive: 17.8 µM [activator, partial curve, poor fit].

For COc1ccc(NC(=O)c2csc(Cc3ccccc3)n2)cc1, which Potency is on record?
Its Potency is inconclusive: 23.1 µM [inhibitor, partial curve, poor fit].

For Cc1ccc(-c2nc3c(c(=O)c4ccccc4n3C)c(=O)n2-c2ccccc2)cc1, which “activity change, negative = inhibition” value is on record?
Its value is inactive: -4.9%.

With CCN(CC)c1ncnc2scc(C3COc4ccccc4O3)c12 (stereo unspecified) as the compound, how does the Potency read?
Its Potency is inconclusive: 1.64 µM [inhibitor, partial curve, poor fit].

With COc1ccc(/C(C)=N/NC(=O)CNC(=O)c2ccncc2)c(OC)c1 as the compound, how does the Potency read?
The Potency was inconclusive: 35.5 µM [activator, single point].

Which “activity change, negative = inhibition” value does the source give for O=C(CCCCn1c(=O)c2ccccc2n(CC(=O)Nc2cccc(F)c2)c1=O)NCc1ccccc1Cl here?
Its value is inactive: -13.1% [at 46.1 µM].

Which “activity change, negative = inhibition” value does the source give for CN(c1c(C#N)c(C(F)(F)F)nn1C)N(S(C)(=O)=O)S(C)(=O)=O here?
Its value is inactive: -21% [at 46.1 µM].

For CCOc1ccc(/C(O)=C2/C(=O)C(=O)N(CCOCCO)C2c2ccccn2)cc1 (stereo unspecified), which “activity change, negative = inhibition” value is on record?
The value was inactive: -1.52%.

For Cc1cccc(NC(=S)NCCc2c[nH]c3ccccc23)c1, which Potency is on record?
Its Potency is inconclusive: 35.5 µM [inhibitor, single point].

With CCN1CCN(C(=O)c2cc(COc3ccc(F)cc3F)on2)[C@@H](C)C1=O as the compound, how does the Potency read?
Its Potency is inconclusive: 7.94 µM [inhibitor, partial curve, poor fit].

With CN(Cc1ccccc1)C(=O)c1cc2c(s1)-c1ccc(Cl)cc1SC2 as the compound, how does the Potency read?
Its Potency is inconclusive: 2.82 µM [inhibitor, full curve, poor fit].

For Cc1ccc(S(=O)(=O)N[C@@H](Cc2ccccc2)C(=O)CCl)cc1, which Potency is on record?
Its Potency is active: 4.61 µM.

With CC(C)(C)OC(=O)N1CCC(C(=O)Nc2cccc(C(=O)N3CCCCC3)c2)CC1 as the compound, how does the Potency read?
Its Potency is inconclusive: 11.2 µM [activator, single point].

For COc1cc(/C=C/c2nc(C#N)c(NC(C)c3ccccc3)o2)cc(OC)c1OC (stereo unspecified), which Potency is on record?
Its Potency is inconclusive: 35.5 µM [inhibitor, single point].

For Cc1cc(-c2cc(C(=O)O)c3ccccc3n2)c(C)s1, which Potency is on record?
Its Potency is inconclusive: 5.62 µM [inhibitor, single point].

For Cc1cccc(-n2cnc3cc([N+](=O)[O-])ccc32)c1, which Potency is on record?
Its Potency is inconclusive: 0.447 µM [activator, full curve, poor fit].

For CCC(C)NC(=O)c1ccc(CSCc2ccccc2Cl)o1 (stereo unspecified), which Potency is on record?
Its Potency is inconclusive: 1 µM [inhibitor, full curve, poor fit].

For CCCn1c(N2CCC(Cc3ccccc3)CC2)nc2c1c(=O)[nH]c(=O)n2C, which Potency is on record?
The Potency was inconclusive: 11.2 µM [inhibitor, partial curve].

With COc1ccc(N(C(=O)COc2ccc(Br)cc2)S(=O)(=O)c2ccc(C)cc2)cc1 as the compound, how does the “activity change, negative = inhibition” value read?
Its value is inactive: -9.71% [at 46.1 µM].

For Cc1ccc(NC(=O)CCc2c(C)nn(-c3ccc(N4CCOCC4)nn3)c2C)cc1F, which Potency is on record?
Its Potency is inconclusive: 35.5 µM [activator, single point].
